Measured values: the supplement of paper PMC12823440, “Inhibitors supercharge kinase turnover through native proteolytic circuits” (Nature, 2025)
Structures can show the parent of a compound that is named as a salt. The list shows a part of the results. Hit calls seldom repeat between salt and free forms of one compound.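 In K562 cells expressing nanoluciferase-fused kinases, luminescence was recorded at 4 h intervals between 2 and 18 h, normalized as percent of control with DMSO at 100% and a positive control at 0%. A significant (2 sigma) signal drop marks a time point as decreased. The authors' rule for a hit is not shown and takes in more than the number of time points.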

Protein sequences, listed by entry. Tags and fused reporters are not part of them. Lines headed by an entry give the natural chain unless they say otherwise; changes in a name come on top.
UniProt O75460: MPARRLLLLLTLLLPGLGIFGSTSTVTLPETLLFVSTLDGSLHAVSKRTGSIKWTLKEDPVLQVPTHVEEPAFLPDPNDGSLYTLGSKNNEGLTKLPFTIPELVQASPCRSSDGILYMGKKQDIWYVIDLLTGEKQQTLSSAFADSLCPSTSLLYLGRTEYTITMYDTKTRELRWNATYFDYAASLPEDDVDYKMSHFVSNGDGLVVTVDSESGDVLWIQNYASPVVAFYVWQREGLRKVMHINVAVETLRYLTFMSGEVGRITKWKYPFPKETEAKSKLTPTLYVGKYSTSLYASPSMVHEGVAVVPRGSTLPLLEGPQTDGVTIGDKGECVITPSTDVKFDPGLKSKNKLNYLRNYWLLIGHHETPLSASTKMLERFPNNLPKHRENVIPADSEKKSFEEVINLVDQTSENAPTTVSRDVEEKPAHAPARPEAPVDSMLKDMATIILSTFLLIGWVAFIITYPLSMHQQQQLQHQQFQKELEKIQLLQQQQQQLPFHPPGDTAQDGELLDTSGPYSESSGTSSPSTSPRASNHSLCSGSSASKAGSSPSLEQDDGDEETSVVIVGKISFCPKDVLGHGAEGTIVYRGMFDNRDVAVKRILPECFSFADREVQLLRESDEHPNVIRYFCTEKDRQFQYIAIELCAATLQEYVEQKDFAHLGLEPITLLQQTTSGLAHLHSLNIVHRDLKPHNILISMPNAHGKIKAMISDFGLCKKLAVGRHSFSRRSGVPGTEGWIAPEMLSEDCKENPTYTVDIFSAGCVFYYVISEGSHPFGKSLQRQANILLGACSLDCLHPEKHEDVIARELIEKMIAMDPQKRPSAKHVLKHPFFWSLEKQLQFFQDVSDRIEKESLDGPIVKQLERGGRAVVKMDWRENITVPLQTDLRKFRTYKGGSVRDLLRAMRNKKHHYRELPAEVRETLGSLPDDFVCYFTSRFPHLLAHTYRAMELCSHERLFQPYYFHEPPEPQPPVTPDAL

molecular target: ERN1 (UniProt O75460); test: number of time points (of 5) at which kinase-Nluc abundance scored as decreased, DMSO-normalised (count); higher = more persistent destabilization; details: K562; 2-18 h

`CN1CC[C@H](c2c(O)cc(O)c3c(=O)cc(-c4ccc(C(F)(F)F)cc4Cl)oc23)[C@H]1CO` [(2S,3R)-Voruciclib (hydrochloride)] (2.5 µM) and `O=c1cc(-c2ccc(O)c(O)c2O)oc2ccccc12` (10 µM) are the same in “number of time points” value: 0 for the first, 0 for the second.

`CCn1nc(C2CCN(C(=O)CCO)CC2)nc1-c1cnc(N)c(-c2nnc(C(C)(C)C)o2)n1` (10 µM) and `COC1(C(=O)N[C@@H](C)c2ccc(-n3cc(F)cn3)nc2)CCC(c2nc(C)cc(Nc3cc(C)[nH]n3)n2)CC1` (stereo partly drawn) [trans-Pralsetinib] (2.5 µM) are the same in “number of time points” value: 0 for the first, 0 for the second.

`O=C(O)c1ccccc1Nc1cccc(C(F)(F)F)c1` [Flufenamic acid] (10 µM) and `O=C(O)CCc1ccc(NCc2cccc(Oc3ccccc3)c2)cc1` (10 µM) are the same in “number of time points” value: 0 for the first, 0 for the second.

`CNC(=O)c1ccc(-c2cnc3cnc(-c4ccccc4)cn23)cc1` (10 µM) and `O=C(O)c1ccc(-c2c[nH]c3ncc(-c4ccccc4)cc23)cc1C1CCCC1` (2.5 µM) are the same in “number of time points” value: 0 for the first, 0 for the second.

`Nc1cccc(S(=O)(=O)N2CCCN(S(=O)(=O)c3ccc4c(c3)OCCO4)CC2)c1` (10 µM) and `CC1(COc2ccc3c(c2)ncn3-c2ccc3cccc(N4CCC(N)CC4)c3n2)COC1` [Crenolanib] (2.5 µM) are the same in “number of time points” value: 0 for the first, 0 for the second.

Going from `O=C(CCCCCn1cc(Nc2ncc(Cl)c(Nc3ccc(Cl)cc3)n2)cn1)NO` (2.5 µM) to `CC(C)n1cnc2c(Nc3cccc(Cl)c3)nc(NCCO)nc21` (10 µM), the “number of time points” value falls from 1 to 0.

`COc1ccc(CCNc2ncc3c(=O)n(-c4cccc(F)c4)c(=O)[nH]c3n2)cc1OC` (2 µM) and `CC[C@H](Nc1ncnc2[nH]cnc12)c1oc2ccccc2c(=O)c1-c1cccc(F)c1` [Tenalisib] (10 µM) are the same in “number of time points” value: 0 for the first, 0 for the second.

First: OCCN(CCO)c1ccc(C(c2ccc(Cl)cc2)c2ccc(N(CCO)CCO)cc2)cc1 (10 µM)
Second: CC1=C(CC(=O)O)c2cc(F)ccc2/C1=C\c1ccc(C(C)C)cc1 (10 µM)
The “number of time points” value of the first is higher: 3 for the first, 0 for the second.

`CSc1ccc(CN2CCCC(Nc3ccc4[nH]ncc4c3)C2)cc1` (centres undefined) [Rho-Kinase-IN-1] (10 µM) and `CC(C)c1ccc(CC(=O)N2CCN(c3ccc(C#N)nn3)CC2)cc1` (10 µM) are the same in “number of time points” value: 0 for the first, 0 for the second.

`COc1cc(C(=O)N2CCC(N3CCN(C)CC3)CC2)ccc1Nc1ncc2c(n1)N(C)c1ccccc1C(=O)N2C` (10 µM) and `COc1cc(N2CCC(N(C)C)CC2)ccc1Nc1ncc(Cl)c(Nc2ccccc2P(C)(C)=O)n1` (2.5 µM) are the same in “number of time points” value: 0 for the first, 0 for the second.

`CC(C)c1cc(/C=C(\C#N)C(N)=O)cc(C(C)C)c1O` (10 µM) and `COc1cc(C(C)=O)cc(OC)c1O` [Acetosyringone] (10 µM) are the same in “number of time points” value: 0 for the first, 0 for the second.

`CCCNC(=O)c1cn2ncnc(Nc3cc(C(=O)NC4CC4)ccc3C)c2c1C` (10 µM) and `CC(=O)Nc1nc2ccc(-c3cnc(C)c(NC(=O)OC4CCCCC4)c3)cc2s1` (10 µM) are the same in “number of time points” value: 0 for the first, 0 for the second.

`COc1ccc2c(c1OC)OC1c3ccc(O)cc3OCC21` (centres undefined) [Methylnissolin] (10 µM) and `O=C1NCCCc2c1oc1ccc(O)cc21` (10 µM) are the same in “number of time points” value: 0 for the first, 0 for the second.

`CN(CC(=O)N(Cc1ccc(C2CCCCC2)cc1)c1ccc(C(=O)O)c(O)c1)S(=O)(=O)c1c(F)c(F)c(F)c(F)c1F` (2.5 µM) and `CN(C)Cc1cccc(N=C(c2ccccc2)c2c(O)[nH]c3cc(C(=O)N(C)C)ccc23)c1` (10 µM) are the same in “number of time points” value: 0 for the first, 0 for the second.

`CCCCNC(=N)NC(=N)N` [Buformin (hydrochloride)] (2.5 µM) and `COc1nc(-c2ccnc(NC(=O)C3CC3)c2)sc1C(N)=O` [GSK-3β inhibitor 2] (10 µM) are the same in “number of time points” value: 0 for the first, 0 for the second.

`c1ccc(-c2oc3ncnc(NC[C@@H]4CCCO4)c3c2-c2ccccc2)cc1` (2.5 µM) and `CCOc1ccccc1C=C1C(=O)Nc2ccccc21` (10 µM) are the same in “number of time points” value: 0 for the first, 0 for the second.

`Cc1ccc(-c2nn(C(C)(C)CNC(=O)c3ccncc3)c3ncnc(N)c23)cc1` (2.5 µM) and `Cc1ccc(-c2ccc3c(ccc4sc5c(c43)NC[C@@H](C)NC5=O)n2)cn1` (10 µM) are the same in “number of time points” value: 0 for the first, 0 for the second.

`CC(C)(C)C(=O)N1N=CC[C@H]1c1ccccc1` (10 µM) and `Cc1cc(C(C)Nc2ccccc2)c2nc(N3CCOCC3)cc(=O)n2c1` (centres undefined) (10 µM) are the same in “number of time points” value: 0 for the first, 0 for the second.

`CN(C)Cc1cccc(N=C(c2ccccc2)c2c(O)[nH]c3cc(C(N)=O)ccc23)c1` (10 µM) and `C=C[C@H]1[C@H](O[C@@H]2O[C@H](CO)[C@@H](O)[C@H](O)[C@H]2OC(=O)c2c(O)cc(O)cc2-c2cccc(O)c2)OC=C2C(=O)OCC[C@H]21` [Amarogentin] (10 µM) are the same in “number of time points” value: 0 for the first, 0 for the second.

`Nc1cc(C(F)F)c(-c2nc(N3C4CCC3COC4)nc(N3C4CCC3COC4)n2)cn1` (2.5 µM) was tested, and the “number of time points” value was 0.
